# Experimental data from PubChem BioAssay AID540276 (National Center for Advancing Translational Sciences (NCATS), 2011).
# Hit rate of the full screen: of about 300,000 compounds, about 5,400 (1.8%) were called active. Inconclusive results, whose numbers are uncertain, are shown with a selection of clear calls. Calls come from the whole dose curve; tested in HEK293 cells. Potencies of inconclusive entries are doubtful fits and often do not repeat.
# Test: qHTS for inhibitors of binding or entry into cells for Marburg Virus
# Settings: Marburg virus pseudotyped entry inhibition, cell reporter; series mostly up to 37.8 µM
# Potency is the fitted concentration of half-maximal effect.
row,Structure (SMILES),Potency
1,O=C(Nc1ccc(C(=O)c2ccccc2)cc1)c1ccccc1,"inconclusive: 1.41 µM [activator, partial curve]"
2,O=C(NCCCO)/C(=C\c1ccco1)NC(=O)c1ccc(Br)o1,"inconclusive: 5.62 µM [activator, single point]"
3,O=C(NCc1ccccn1)Nc1cccc(Cl)c1,"inconclusive: 6.51 µM [activator, single point]"
4,O=C(NCc1ccco1)c1cc2n(n1)C(C(F)(F)F)CC(c1ccc(Cl)c(Cl)c1)N2 (stereo not drawn),"inconclusive: 18.3 µM [inhibitor, partial curve, poor fit]"
5,Cc1ccc2cccc(SCC(=O)Nc3ccc(F)cc3)c2n1,"inconclusive: 3.55 µM [inhibitor, single point]"
6,Cc1ccccc1NC(=O)COC(=O)c1cc[n+]([O-])cc1,"inconclusive: 1.26 µM [inhibitor, single point]"
7,C=CCN1C(=O)c2ccccc2NC1c1ccc(Br)s1 (stereo not drawn),inactive
8,CCOC(=O)c1sc2nc(N3CCOCC3)c3c(c2c1N)CCN(Cc1ccccc1)C3,"inconclusive: 3.16 µM [inhibitor, full curve, poor fit]"
9,Cc1ccc(C)c(OCc2nc3ccc(S(=O)(=O)Nc4c(C)n(C)n(-c5ccccc5)c4=O)cc3[nH]2)c1,inactive
10,CCOc1ccc(NC(=O)CC2C(=O)N(c3ccccc3)C(=O)N2CCc2ccc(OC)cc2)cc1 (stereo not drawn),"inconclusive: 12.6 µM [inhibitor, partial curve, poor fit]"
11,Cc1cccc(S(=O)(=O)NC2CCCCCCC2)c1,"inconclusive: 15.8 µM [inhibitor, single point]"
12,OC(CNCC1(N2CCCCC2)CCCCC1)COc1ccc(Cl)cc1Cl (stereo not drawn),"inconclusive: 31.6 µM [inhibitor, single point]"
13,c1cncc(CNc2ncnc3sc4c(c23)CCCC4)c1,"inconclusive: 0.631 µM [inhibitor, partial curve, poor fit]"
14,Cc1ccc2cccc(Oc3nnnn3-c3ccccc3)c2n1,"inconclusive: 1.78 µM [inhibitor, partial curve, poor fit]"
15,Cc1cc(S(=O)(=O)N2CCCCC2)ccc1OCC(=O)N1CCCC1,inactive
16,CCCCN(CC)CCNC(=O)Cn1cnc2sc(C)c(S(=O)(=O)N3CCC(C)CC3)c2c1=O,inactive
17,CC1=C/C(=N\OS(=O)(=O)c2ccccc2)C(C)=CC1=O,"inconclusive: 8.91 µM [inhibitor, partial curve, poor fit]"
18,CC(C)(C)n1cnc2cc(NC(=O)c3cccs3)ccc21,"inconclusive: 2 µM [inhibitor, partial curve, poor fit]"

# 3 entries out of the list, arranged by molecular weight, rising.
row,Structure (SMILES),Potency
17,CC1=C/C(=N\OS(=O)(=O)c2ccccc2)C(C)=CC1=O,"inconclusive: 8.91 µM [inhibitor, partial curve, poor fit]"
2,O=C(NCCCO)/C(=C\c1ccco1)NC(=O)c1ccc(Br)o1,"inconclusive: 5.62 µM [activator, single point]"
16,CCCCN(CC)CCNC(=O)Cn1cnc2sc(C)c(S(=O)(=O)N3CCC(C)CC3)c2c1=O,inactive
